# Library screen at single concentrations

The chains behind the UniProt entries cited, without tags or fusion partners. Residues count along the entry.
UniProt Q8IDJ8, 1-583: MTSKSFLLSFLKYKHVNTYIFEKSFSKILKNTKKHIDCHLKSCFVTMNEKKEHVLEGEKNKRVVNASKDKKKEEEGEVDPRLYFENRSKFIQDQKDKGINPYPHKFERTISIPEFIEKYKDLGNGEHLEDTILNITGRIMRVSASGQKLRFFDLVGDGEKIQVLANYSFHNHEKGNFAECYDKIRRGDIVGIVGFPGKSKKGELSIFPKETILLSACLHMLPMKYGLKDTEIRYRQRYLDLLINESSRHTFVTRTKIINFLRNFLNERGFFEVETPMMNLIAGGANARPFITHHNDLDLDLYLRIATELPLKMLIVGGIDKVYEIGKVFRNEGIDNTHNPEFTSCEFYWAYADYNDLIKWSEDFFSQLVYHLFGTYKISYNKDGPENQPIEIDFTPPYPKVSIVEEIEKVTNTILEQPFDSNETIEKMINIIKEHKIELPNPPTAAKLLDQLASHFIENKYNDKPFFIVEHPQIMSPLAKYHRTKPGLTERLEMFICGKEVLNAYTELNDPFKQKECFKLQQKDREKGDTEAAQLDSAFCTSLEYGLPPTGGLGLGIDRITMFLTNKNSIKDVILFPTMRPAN
UniProt A4I591, 1-473: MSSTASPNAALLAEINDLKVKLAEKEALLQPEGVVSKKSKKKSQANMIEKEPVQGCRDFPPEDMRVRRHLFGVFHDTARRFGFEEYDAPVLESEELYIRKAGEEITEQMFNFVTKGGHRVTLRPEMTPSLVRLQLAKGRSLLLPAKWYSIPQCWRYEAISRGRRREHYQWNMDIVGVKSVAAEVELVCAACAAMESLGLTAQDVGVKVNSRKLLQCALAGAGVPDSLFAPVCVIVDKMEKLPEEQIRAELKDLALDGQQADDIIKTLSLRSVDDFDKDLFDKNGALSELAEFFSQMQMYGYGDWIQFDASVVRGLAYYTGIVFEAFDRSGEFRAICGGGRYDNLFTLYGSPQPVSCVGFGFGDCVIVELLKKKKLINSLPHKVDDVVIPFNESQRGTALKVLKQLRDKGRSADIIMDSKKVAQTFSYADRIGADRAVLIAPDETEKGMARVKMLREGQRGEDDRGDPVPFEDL

T. brucei: 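Whole-parasite assay of Trypanosoma brucei over 72 hours; the read-out is not stated. Concentration: 30 µM. Direction is inferred from retests: higher values go with stronger inhibition. Values scatter widely below zero; nearly all retest evidence comes from the higher of the two concentrations used. Size under these conditions: about 64,000 compounds, about 940 of them at 50% or above in at least one test.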
PfKRS1: 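Enzyme assay of the cytosolic lysyl-tRNA synthetase in 384-well plates, read by luminescence. Target: Lysine-tRNA ligase, Plasmodium falciparum 3D7 (UniProt Q8IDJ8). Tested at 30 µM. Higher reads as stronger inhibition, judged from the few compounds that gave an IC50. Size under these conditions: about 69,000 compounds, about 49 of them at 50% or above in at least one test.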
LiHisRS: 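Enzyme assay of histidyl-tRNA synthetase; the read-out is not stated. Target: Histidine-tRNA ligase, Leishmania infantum (UniProt A4I591). Tested at 30 µM. The record gives no direction; compounds that gave an IC50 in retests scored well above the rest, so higher reads as stronger inhibition. The assay is labelled LdHisRS but filed under L. infantum. Of about 69,000 compounds tested this way, about 410 (0.6%) reached 50% or more in at least one test.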
Toxoplasma: 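Assay of Toxoplasma gondii numbers, read through their beta-galactosidase reporter with a colour substrate. Compounds at 10 µM. Higher reads as fewer parasites (inferred from which compounds were picked for retests). About 67,000 compounds were tested under these conditions; 0.38% (about 260) showed 50% or more at least once.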

Results are given as percent effect.
The controls that fix the scale are not given in the record; negative values are as filed.
This is an unselected part of the compounds tested.
A dash means the value is not listed here; it may have been measured.

With CC(=O)N1CCOCC2(CCN(Cc3ccc(C)s3)CC2)C1 the screen gave PfKRS1: 3.014%; LiHisRS: 16.98%.
With COCC(=O)N1CCO[C@]2(CCC[C@H]2COC)C1 the screen gave T. brucei: -29.12%; PfKRS1: -0.2149%; LiHisRS: -1.98%; Toxoplasma: -3.484%.
With COC(=O)C(C)(C)NC(=O)C1CC(=O)N(C)C1 (centres undefined) the screen gave T. brucei: 5.609%; PfKRS1: 0.263%; LiHisRS: 1.905%; Toxoplasma: 10.74%.
With COc1ccccc1CNC(Cc1cccs1)c1nc(C)cs1.Cl (centres undefined) the screen gave T. brucei: -31.26%; Toxoplasma: 0.379%.
With CCCN1CCC(NC(=O)c2csc(C)c2-c2ccccc2)CC1 the screen gave T. brucei: -89.86%; PfKRS1: 5.215%; LiHisRS: 14.47%; Toxoplasma: 21.89%.
With Cc1ccc(CN(C)Cc2cc(C3CC3)[nH]n2)c(O)n1 the screen gave T. brucei: -27.55%; PfKRS1: -1.134%; LiHisRS: 5.208%; Toxoplasma: 4.799%.
With CC(=O)Nc1cc(CN(C)C)ccc1C the screen gave T. brucei: -29.28%; PfKRS1: 4.677%; LiHisRS: 18.31%; Toxoplasma: 10.57%.
With CC(C)n1ccc(C(=O)OCC2CC(=O)N(Cc3ccccc3)C2)n1 (centres undefined) the screen gave T. brucei: -70.05%; PfKRS1: 3.881%; LiHisRS: 3.54%; Toxoplasma: -3.122%.
With CCOc1ccc(N(C)Cc2nnc(C3CC3)o2)cc1 the screen gave T. brucei: -683%; PfKRS1: 5.447%; LiHisRS: 19.18%; Toxoplasma: -1.193%.
With CCOc1ccc(CN2C(=O)CC(C)(C(C)C)C2=O)nc1 (centres undefined) the screen gave T. brucei: -47.56%; PfKRS1: 3.131%; LiHisRS: 5.172%; Toxoplasma: -2.692%.
With C[C@@H]1CN(Cc2cc3ccccc3n2C)CC[C@]1(C)O the screen gave T. brucei: -52.11%; PfKRS1: 3.51%; LiHisRS: 10%; Toxoplasma: 17.92%.
With Cc1cccc(NC2CCN(C(=O)Nc3cc(C)on3)CC2)n1 the screen gave T. brucei: 17.61%; PfKRS1: 8.094%; LiHisRS: 14.61%.
With O=C(Nc1ccccn1)N(CCO)Cc1ccccc1Br the screen gave T. brucei: 9.579%; PfKRS1: 0.8527%; LiHisRS: 19.64%; Toxoplasma: -22.97%.
With COCCCN(C)c1nc(-c2ccncc2)nc2c1CCN(C(C)=O)C2 the screen gave T. brucei: 34.22%; PfKRS1: 7.639%; LiHisRS: 26.03%; Toxoplasma: -0.9042%.
With CC1c2ncc(CNC(=O)C3CC3)n2CCN1Cc1ccccn1.O=C(O)C(F)(F)F.O=C(O)C(F)(F)F (centres undefined) the screen gave T. brucei: -6.399%; Toxoplasma: 15.03%.
With c1coc(-c2nnc(CN3CCOC(Cn4cccn4)C3)o2)c1 (centres undefined) the screen gave T. brucei: 21.51%; PfKRS1: 7.691%; LiHisRS: 12.36%.
With CCCSCC(=O)N1C[C@@H](NC(C)=O)[C@H](c2ccc(OC)cc2)C1 the screen gave T. brucei: -100.7%; PfKRS1: 3.308%; LiHisRS: 15.79%; Toxoplasma: 3.831%.
With CS(=O)(=O)Cc1cc(F)ccc1NCc1nnsc1Cl the screen gave T. brucei: 3.575%; PfKRS1: 4.871%; LiHisRS: 0.9009%; Toxoplasma: 5.227%.
With CNC(=O)C1CCN(CC(=O)Nc2cc(C(C)C)no2)CC1 the screen gave PfKRS1: -0.1608%; LiHisRS: 11.97%; Toxoplasma: 13.66%.
With [H][C@@]12CS(=O)(=O)C[C@]1([H])N(C(=O)c1cn3ccsc3n1)CCN2CC1CC1 the screen gave T. brucei: -0.9538%; Toxoplasma: 3.084%.
With Cc1csc(C(=O)N2CCC(S(C)(=O)=O)CC2)c1 the screen gave T. brucei: 2.295%; PfKRS1: 4.585%; LiHisRS: 9.333%; Toxoplasma: -17.16%.
With O=C(CCc1ccccn1)N1CCCC1 the screen gave PfKRS1: -0.1084%; LiHisRS: 7.965%; Toxoplasma: -1.354%.
With c1cc2c(cc1Cn1cc(C3CCCNC3)nn1)CCCO2 (centres undefined) the screen gave T. brucei: 21.36%; PfKRS1: 4.893%; LiHisRS: 18.37%; Toxoplasma: 8.85%.
With Cc1cc(C(=O)N2C[C@@H]3COC[C@]3(CN(C)C)C2)c(C)o1 the screen gave PfKRS1: 4.663%; LiHisRS: -102.6%.
With O=C(NCc1ccc2c(c1)OCO2)[C@H]1C=CCN1c1ncccn1 the screen gave PfKRS1: 2.659%; LiHisRS: 7.042%.
With COc1cc(F)c(NCc2nc3ccccc3n2C)cc1OC the screen gave T. brucei: -19.69%; PfKRS1: 7.444%; LiHisRS: 78.31%; Toxoplasma: -16.2%.

Some entries from above, unchanged:

| structure | T. brucei | PfKRS1 | LiHisRS | Toxoplasma |
|---|---|---|---|---|
| `Cc1csc(C(=O)N2CCC(S(C)(=O)=O)CC2)c1` | 2.295% | 4.585% | 9.333% | -17.16% |
| `c1coc(-c2nnc(CN3CCOC(Cn4cccn4)C3)o2)c1` (centres undefined) | 21.51% | 7.691% | 12.36% | - |

Data taken from ChEMBL document CHEMBL3988442, “University of Dundee, Small-Polar-MMV Screening Library” (2021).